The record followed here is paper PMC5493754.

Protein sequences, listed by entry. Tags and fused reporters are not part of them. Lines headed by an entry give the natural chain unless they say otherwise; changes in a name come on top. Chains listed by the source or under a name are the forms on record and can include a tag or linker. Residues count along the entry.
UniProt Q8N8V4, residues 259-417: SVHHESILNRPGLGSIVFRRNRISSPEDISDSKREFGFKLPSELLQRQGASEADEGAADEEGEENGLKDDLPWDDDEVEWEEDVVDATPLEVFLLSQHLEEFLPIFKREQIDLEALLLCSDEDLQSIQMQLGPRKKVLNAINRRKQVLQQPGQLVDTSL
UniProt Q495M9, residues 300-461: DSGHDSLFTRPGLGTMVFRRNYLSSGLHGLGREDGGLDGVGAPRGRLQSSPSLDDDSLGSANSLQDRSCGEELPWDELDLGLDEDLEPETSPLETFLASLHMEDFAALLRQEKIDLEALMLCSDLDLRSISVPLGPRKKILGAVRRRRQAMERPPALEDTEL
Myosin 7b MF1.SH3 A1128E-R1129E-K1192E (Q6PIF6, form named): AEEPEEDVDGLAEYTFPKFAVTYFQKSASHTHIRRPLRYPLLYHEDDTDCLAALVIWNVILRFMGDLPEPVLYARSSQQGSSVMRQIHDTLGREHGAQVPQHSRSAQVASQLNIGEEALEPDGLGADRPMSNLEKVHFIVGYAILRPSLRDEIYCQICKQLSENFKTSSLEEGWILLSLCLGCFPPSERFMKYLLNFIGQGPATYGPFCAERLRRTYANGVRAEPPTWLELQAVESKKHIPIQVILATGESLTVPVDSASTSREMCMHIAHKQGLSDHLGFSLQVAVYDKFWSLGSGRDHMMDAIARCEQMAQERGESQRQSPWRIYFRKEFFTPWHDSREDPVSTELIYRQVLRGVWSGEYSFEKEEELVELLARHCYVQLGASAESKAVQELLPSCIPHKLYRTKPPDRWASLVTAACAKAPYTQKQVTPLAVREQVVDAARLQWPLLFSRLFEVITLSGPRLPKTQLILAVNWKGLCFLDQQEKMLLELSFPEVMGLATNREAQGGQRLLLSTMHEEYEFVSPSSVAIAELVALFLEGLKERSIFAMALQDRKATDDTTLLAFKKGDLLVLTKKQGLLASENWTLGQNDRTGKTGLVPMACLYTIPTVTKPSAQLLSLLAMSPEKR

Results are given in words; binding and its absence hold for the method and conditions named.

The target of assay [1] is YFP-ANKS4B_(CEN-PBM) (human) (UniProt Q8N8V4). Description: MST; YFP-fused partner constant at 100 nM, non-fluorescent protein titrated (16 two-fold dilutions); 20 mM Hepes pH 7.0, 100 mM NaCl, 1 mM EGTA, 0.5 mM TCEP, 0.05% Tween 20; Monolith NT.115; both purified.
A further assay deals with YFP-SANS_(CEN-PBM) (UniProt Q495M9). The description is as above.

Turning to “Myosin 7b MF1.SH3 A1128E-R1129E-K1192E (from UniProt Q6PIF6 958-1586) (domain or fragment)”, the binding entry (in assay [1]; in the assay with YFP-SANS_(CEN-PBM)) was “no binding” throughout.
